Drug screen on melanoma cell lines: apoptosis marker

From a melanoma drug combination screen (doi:10.1371/journal.pone.0140310); values rounded.

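Human melanoma cells were exposed to two drugs together for 72 h in 1,536-well plates and read by automated microscopy after fixing and staining. Each value is the cleaved-PARP-positive fraction of nuclei relative to DMSO-treated wells, in %, so that 100 equals the control and higher values mean more apoptosis. Concentrations were fixed for each drug; these are the higher of two levels. These are primary screening values without error estimates. Basal and induced levels differ widely between cell lines.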 Only some of the drugs and lines screened are listed, without regard to their results. A dash means that no value is listed here.

Drugs:
KU-55933 (5 µM): O=c1cc(-c2cccc3c2Sc2ccccc2S3)oc(N2CCOCC2)c1
IMD-0354 (0.08 µM): O=C(Nc1cc(C(F)(F)F)cc(C(F)(F)F)c1)c1cc(Cl)ccc1O
T0901317 (7 µM): O=S(=O)(c1ccccc1)N(CC(F)(F)F)c1ccc(C(O)(C(F)(F)F)C(F)(F)F)cc1
indole-3-carbinol (4 µM): OCc1c[nH]c2ccccc12
lapatinib (4 µM): CS(=O)(=O)CCNCc1ccc(-c2ccc3ncnc(Nc4ccc(OCc5cccc(F)c5)c(Cl)c4)c3c2)o1

Cell line | indole-3-carbinol + IMD-0354 | KU-55933 + indole-3-carbinol | IMD-0354 + KU-55933 | KU-55933 + T0901317 | indole-3-carbinol + T0901317 | lapatinib + IMD-0354 | T0901317 + lapatinib | indole-3-carbinol + lapatinib
A2058 | 67.6 | 101 | 95.8 | 92.2 | 113 | 164 | 86.7 | 123
MZ2-MEL | 22.5 | 70.9 | 116 | 172 | 40.6 | 141 | 167 | 62.0
WM451Lu | 49.7 | 33.0 | 80.2 | 18.7 | 61.2 | 59.8 | 86.4 | 120
C32 | 247 | 74.0 | 83.6 | 92.6 | 86.4 | 258 | 102 | 78.0
MEL-HO | 84.6 | 166 | 96.7 | 56.3 | 81.2 | 294 | 161 | 54.8
SK-MEL-2 | 165 | 167 | 56.6 | 430 | 59.8 | 144 | 82.4 | 20.3
SK-MEL-30 | 103 | 120 | 85.1 | 34.1 | 94.2 | 72.9 | 185 | 96.5
501mel | - | 117 | 53.9 | 365 | 248 | - | 199 | -
RPMI-7951 | 104 | 53.6 | 61.0 | 121 | 57.2 | 87.9 | 847 | 188
SK-MEL-5 | 138 | 190 | 75.4 | 355 | 109 | 105 | 249 | 260
COLO 792 | 99.3 | 54.1 | 93.3 | 50.7 | 85.0 | 137 | 223 | 126
SK-MEL-28 | 68.9 | 99.7 | 57.3 | 83.9 | 78.3 | 100 | 196 | 71.1
WM3619 | 89.5 | 125 | 102 | 82.1 | 67.6 | 107 | 292 | 112
WM1716 | 51.9 | 74.1 | 50.1 | 37.1 | 36.4 | 161 | 155 | 31.6
WM115 | 165 | 88.9 | 53.3 | 112 | 210 | 50.9 | 126 | 198
IST-MEL1 | 84.2 | 148 | 50.9 | 128 | 199 | 193 | 93.0 | 114
WM1745 | 70.4 | - | - | 76.5 | - | 92.6 | - | 86.6
WM3526 | 146 | 181 | 183 | 115 | 76.8 | 155 | 123 | 145
RVH-421 | 75.4 | 737 | 141 | 119 | 144 | 57.0 | 136 | 58.4
A101D | 30.6 | 50.2 | 146 | 82.6 | 166 | 72.3 | 58.0 | 59.0
UACC-62 | 247 | 246 | 102 | 7.7 | 95.4 | 230 | 328 | 515
IPC-298 | 41.7 | 41.7 | 73.1 | 106 | 156 | 160 | 109 | 119
MeWo | 85.2 | 74.9 | 179 | 42.5 | 164 | 100 | 195 | 61.8
COLO 800 | 106 | 227 | 61.2 | 94.0 | 90.8 | 204 | 43.2 | 50.8
LOX IMVI | 72.7 | 143 | 109 | 297 | 90.4 | 101 | 83.3 | 54.4
A375 | 94.7 | 136 | 262 | 43.7 | 157 | 76.0 | 103 | 112
LB2518-MEL | 202 | 174 | 132 | 56.9 | 65.7 | 76.2 | 64.0 | 115
UACC-257 | 34.3 | 56.4 | 29.2 | 53.0 | 68.0 | 42.3 | 41.9 | 197
COLO 829 | 78.6 | 68.0 | 67.4 | 65.6 | 122 | 109 | 224 | 146
G-361 | 48.9 | 72.8 | 163 | 109 | 129 | 108 | 2470 | 89.7